Experiment [1] addresses T1, rat sclerostin peptide … (SEQ ID NO:97) (rat).
T1 sequence (peptide): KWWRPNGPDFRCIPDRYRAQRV
The experiment can be described thus: peptide binding ELISA, peptide coupled to sulfhydryl binding plate, antibody at 1 ug/ml. On the technique in general: An ELISA detects its analyte on a solid surface through an enzyme-linked reagent.

Experiment [2] deals with T2, rat sclerostin peptide … (SEQ ID NO:96) (rat).
T2 sequence (peptide): PNAIGRVKWWRPNGPDFRC
The experiment is described as above.

No constants are given. Whether binding was seen depends on the method and setting. Some entries that bind do so weakly or less than the wild type.

B1: Antibody 19 (antibody, V domains shown)
VH: EVQLQQSGPELVKPGASVKMSCKASGFTFTDYIMHWVKQKPGQGLEWIGYINPYNDDTEYNEKFKGKATLTSDKSSSTAYMDLSSLTSEGSAVYYCARSIYYYDAPFAYWGQGTLVTVSS
VL: DIQMTQTTSSLSASLGDRVNISCRASQDISSYLNWYQQKPDGTVKLLIYSTSRLNSGVPSRFSGSGSGTDYSLTISNLAQEDIATYFCQQDIKHPTFGGGTKLELKR
B1: the binding entry in experiment [1] and in experiment [2] was “binds” in each case.

The record behind these values is patent US20140248666A1.
